This passage reports binding results from doi:10.1101/2024.11.07.622459.

Protein sequences, listed by entry. Tags and fused reporters are not part of them.
UniProt Q99700: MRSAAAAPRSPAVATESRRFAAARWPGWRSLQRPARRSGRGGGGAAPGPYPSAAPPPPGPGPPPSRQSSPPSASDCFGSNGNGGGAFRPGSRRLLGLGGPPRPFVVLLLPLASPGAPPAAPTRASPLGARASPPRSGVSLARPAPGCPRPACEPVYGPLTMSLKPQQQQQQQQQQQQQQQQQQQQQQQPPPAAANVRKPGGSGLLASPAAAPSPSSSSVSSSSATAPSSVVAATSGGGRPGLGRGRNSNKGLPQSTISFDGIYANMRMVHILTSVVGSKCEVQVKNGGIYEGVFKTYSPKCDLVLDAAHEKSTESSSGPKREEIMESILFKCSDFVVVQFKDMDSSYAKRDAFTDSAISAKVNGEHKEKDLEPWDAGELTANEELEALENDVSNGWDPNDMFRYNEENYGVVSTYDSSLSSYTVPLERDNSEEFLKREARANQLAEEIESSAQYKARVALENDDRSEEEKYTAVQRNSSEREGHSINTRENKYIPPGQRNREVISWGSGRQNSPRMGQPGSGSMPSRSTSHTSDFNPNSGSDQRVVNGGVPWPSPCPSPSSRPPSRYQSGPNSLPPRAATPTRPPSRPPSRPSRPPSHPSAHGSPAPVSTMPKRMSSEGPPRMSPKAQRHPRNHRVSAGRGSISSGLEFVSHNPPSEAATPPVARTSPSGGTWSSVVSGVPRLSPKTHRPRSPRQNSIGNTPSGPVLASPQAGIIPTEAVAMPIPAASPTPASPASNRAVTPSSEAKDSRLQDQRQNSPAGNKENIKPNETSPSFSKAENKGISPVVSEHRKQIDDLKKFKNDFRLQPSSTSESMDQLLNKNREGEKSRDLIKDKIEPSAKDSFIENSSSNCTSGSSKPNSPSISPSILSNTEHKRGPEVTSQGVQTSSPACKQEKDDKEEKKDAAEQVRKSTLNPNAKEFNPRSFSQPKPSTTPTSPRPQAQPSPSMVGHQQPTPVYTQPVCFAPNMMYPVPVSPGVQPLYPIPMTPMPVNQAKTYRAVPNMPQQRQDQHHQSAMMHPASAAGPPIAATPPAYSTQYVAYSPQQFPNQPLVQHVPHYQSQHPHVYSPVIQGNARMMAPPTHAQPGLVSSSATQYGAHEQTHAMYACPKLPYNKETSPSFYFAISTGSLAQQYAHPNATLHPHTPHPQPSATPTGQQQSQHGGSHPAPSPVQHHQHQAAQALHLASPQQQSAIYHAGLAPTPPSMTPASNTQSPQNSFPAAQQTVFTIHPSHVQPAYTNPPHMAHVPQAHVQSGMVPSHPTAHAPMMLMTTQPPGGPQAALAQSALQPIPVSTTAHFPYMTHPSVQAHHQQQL

These are yes or no findings as the source states them, for the method shown. In cells and extracts the contact can be indirect. A yes stands for co-enrichment or nearness to the bait. Other partners may have been found.

For this test, the target named is ATXN2 (ATAXIN2, Spinocerebellar ataxia 2) (human (endogenous in K562)) (UniProt Q99700). Briefly: affinity purification with mass spectrometry.

B1: Tia1 (protein, UniProt P31483 1-386)
chain: MEDEMPKTLYVGNLSRDVTEALILQLFSQIGPCKNCKMIMDTAGNDPYCFVEFHEHRHAAAALAAMNGRKIMGKEVKVNWATTPSSQKKDTSSSTVVSTQRSQDHFHVFVGDLSPEITTEDIKAAFAPFGRISDARVVKDMATGKSKGYGFVSFFNKWDAENAIQQMGGQWLGGRQIRTNWATRKPPAPKSTYESNTKQLSYDEVVNQSSPSNCTVYCGGVTSGLTEQLMRQTFSPFGQIMEIRVFPDKGYSFVRFNSHESAAHAIVSVNGTTIEGHVVKCYWGKETLDMINPVQQQNQIGYPQPYGQWGQWYGNAQQIGQYMPNGWQVPAYGMYGQAWNQQGFNQTQSSAPWMGPNYGVQPPQGQNGSMLPNQPSGYRVAGYETQ
For the molecule B1, the binding result is listed as “binds”.

B2: G3BP2 (protein, UniProt Q9UN86 1-482)
chain: MVMEKPSPLLVGREFVRQYYTLLNKAPEYLHRFYGRNSSYVHGGVDASGKPQEAVYGQNDIHHKVLSLNFSECHTKIRHVDAHATLSDGVVVQVMGLLSNSGQPERKFMQTFVLAPEGSVPNKFYVHNDMFRYEDEVFGDSEPELDEESEDEVEEEQEERQPSPEPVQENANSGYYEAHPVTNGIEEPLEESSHEPEPEPESETKTEELKPQVEEKNLEELEEKSTTPPPAEPVSLPQEPPKAFSWASVTSKNLPPSGTVSSSGIPPHVKAPVSQPRVEAKPEVQSQPPRVREQRPRERPGFPPRGPRPGRGDMEQNDSDNRRIIRYPDSHQLFVGNLPHDIDENELKEFFMSFGNVVELRINTKGVGGKLPNFGFVVFDDSEPVQRILIAKPIMFRGEVRLNVEEKKTRAARERETRGGGDDRRDIRRNDRGPGGPRGIVGGGMMRDRDGRGPPPRGGMAQKLGSGRGTGQMEGRFTGQRR
In the case of B2, the binding entry is listed as “binds”.
